This list was built around the results that the source calls inconclusive (neither active nor inactive); the mix of calls is not that of the screen. Potencies beside an inconclusive call are fits to weak or partial responses and may not hold up. Activity calls are given as the source filed them. The call rests on the fitted dose curve; in most records, active means well fitted inhibition curve with a large enough effect; inconclusive means small, poorly fitted or top-dose-only effect; inactive means no such curve, though single readings can be large or run the other way.
These molecules were tested against Retinaldehyde dehydrogenase 3 (Homo sapiens) (UniProt P47895) (assay: qHTS for Inhibitors of the Aldehyde Dehydrogenase Family (ALDH1A3) Validation screen (AID 2061312; further: nearly all actives have a fitted effect of over 45% in size)). Conditions: ALDH1A3 enzyme inhibition qHTS validation, fluorescence; activity change, negative = inhibition: at 84.7 µM (top of the series).
On the % scale 0 is the no-effect control and ±100 the full control effect; potency means the concentration at half of the fitted maximal effect.

Row | Structure (SMILES) | Potency | activity change, negative = inhibition
1 | Cc1ccc(O)c(N=Nc2ccccc2)n1 | inconclusive: 1.12 µM [inhibitor, full curve] | –
2 | CCOC(=O)CCC(=O)O[C@H]1[C@H](O[C@@H]2[C@@H](C)[C@H](O[C@H]3C[C@@](C)(OC)[C@@H](O)[C@H](C)O3)[C@@H](C)C(=O)O[C@H](CC)[C@@](C)(O)[C@H](O)[C@@H](C)C(=O)[C@H](C)CC2(C)O)O[C@H](C)C[C@@H]1N(C)C (some centres undefined) | – | inactive: 74.8%
3 | COc1ccc(NC(=O)c2ccc(-c3ccc(-c4noc(C)n4)cc3C)cc2)cc1N1CCN(C)CC1 | inconclusive: 15.8 µM [inhibitor, partial curve, poor fit] | –
4 | Cc1ccc(/C(=C\CN2CCCC2)c2ccccn2)cc1 | inconclusive: 3.16 µM [inhibitor, full curve] | –
5 | COc1ccc(CCN(C)CCc2ccc(OC)c(OC)c2)cc1OC | inconclusive: 3.98 µM [inhibitor, partial curve, poor fit] | –
6 | CN1C2CCCC1CC(NC(=O)c1nn(C)c3ccccc13)C2 (centres undefined) | – | inactive: 1.29% [at 42.4 µM]
7 | CCN(CC)CCOC(=O)c1cc(Cl)c(N)cc1OC | inconclusive: 1.12 µM [inhibitor, full curve] | –
8 | CC(C)(C)NC(=O)[C@@H]1CN(Cc2cccnc2)CCN1C[C@@H](O)C[C@@H](Cc1ccccc1)C(=O)N[C@H]1c2ccccc2C[C@H]1O | inconclusive: 79.4 µM [inhibitor, partial curve, poor fit] | –
9 | CC(C)Cc1ccc([C@H](C)C(=O)O)cc1 | – | inactive: 22.1% [at 42.4 µM]
10 | O=C(O)C1CCNCC1 | – | inactive: 3.71% [at 42.4 µM]
11 | CCCn1cc2c(nc(NC(=O)Nc3ccc(OC)cc3)n3nc(-c4ccco4)nc23)n1 | inconclusive: 79.4 µM [inhibitor, partial curve, poor fit] | –
12 | CC[N+](CC)(CC)CC(=O)Nc1c(C)cccc1C | – | inactive: 6.33% [at 42.4 µM]
13 | COc1cc2c(CCNC(C)=O)c[nH]c2cc1O | inconclusive: 20 µM [inhibitor, partial curve, poor fit] | –
14 | CCOc1ccc2nc(SCCN3CCOCC3)[nH]c2c1 | inconclusive: 2 µM [inhibitor, full curve] | –
15 | Cc1cccc(C)c1OCc1cc(C(=O)N2CCC(c3ccncc3)CC2)no1 | – | inactive: 30.5%
16 | CC(NC(=O)CCc1nc2ccccc2c(=O)[nH]1)c1ccccc1 (centres undefined) | – | inactive: -5.3%
17 | O=[N+]([O-])c1cn2c(n1)OCC(OCc1ccc(OC(F)(F)F)cc1)C2 (centres undefined) | – | inactive: 87.6%
18 | CC1(c2nc3c(C(N)=O)cccc3[nH]2)CCCN1 (centres undefined) | inconclusive: 5.62 µM [inhibitor, full curve] | –
19 | CCc1cc(CN2CC(C(=O)O)C2)sc1-c1noc(-c2ccc(Oc3ccccc3)cc2)n1 | inconclusive: 5.62 µM [inhibitor, full curve, poor fit] | –
20 | CCCN1C[C@H](CSC)C[C@@H]2c3cccc4[nH]cc(c34)C[C@H]21 | inconclusive: 22.4 µM [inhibitor, partial curve, poor fit] | –

Row | Structure (SMILES) | Potency | activity change, negative = inhibition
21 | N.N.O=C(O)C1(C(=O)O)CCC1.[Pt+2] | inconclusive: 6.31 µM [inhibitor, partial curve, poor fit] | –
22 | CC(C)CCC(=O)CC1c2ccccc2C(=O)N1c1ccc2ccc(Cl)nc2n1 (centres undefined) | inconclusive: 1.58 µM [inhibitor, full curve] | –
23 | COc1cc(-n2cnc3cc(-c4ccc(Cl)cc4)sc3c2=O)ccc1OCCN1CCCC1 | – | inactive: 158%
24 | NS(=O)(=O)c1cc2c(cc1Cl)NC(C1CC3C=CC1C3)NS2(=O)=O (centres undefined) | inconclusive: 8.91 µM [inhibitor, partial curve, poor fit] | –
25 | C#CCN(C)Cc1ccccc1 | inconclusive: 2.82 µM [inhibitor, full curve] | –
26 | CN1C2CCC1CC(OC(=O)C(O)c1ccccc1)C2 (centres undefined) | inconclusive: 15.8 µM [inhibitor, partial curve, poor fit] | –
27 | Cc1onc(-c2ccccc2Cl)c1C(=O)N(C)c1ccc(Cl)cc1 | – | inactive: 32.7%
28 | COc1ccc(CN2CCN(C(c3ccc(F)cc3)c3ccc(F)cc3)CC2)c(OC)c1OC | inconclusive: 1 µM [inhibitor, full curve, poor fit] | –
29 | COc1cc(NC(=O)c2cc(C3CC3)on2)c(OC)cc1Cl | – | inactive: -26.8%
30 | CCNC(=O)[C@H]1O[C@@H](n2cnc3c(N)nc(NCCc4ccc(CCC(=O)O)cc4)nc32)[C@H](O)C1O (some centres undefined) | inconclusive: 2.24 µM [inhibitor, full curve, poor fit] | –
31 | O=C(Nc1ccccc1)c1cc([N+](=O)[O-])ccc1Cl | – | inactive: 26.1% [at 42.4 µM]
32 | Cc1ccc(CCCO)c(NCc2ccc3nc(NCCCN4CCOCC4)n(Cc4nc(C)ccc4O)c3c2)c1 | – | inactive: 26%
33 | CN1CCN(CCCN2c3ccccc3Sc3ccc(Cl)cc32)CC1 | inconclusive: 1.41 µM [inhibitor, full curve] | –
34 | CCCCCN(CCCCC)C(=O)C(CCC(=O)O)NC(=O)c1ccc(Cl)c(Cl)c1 (centres undefined) | – | inactive: 12.9% [at 42.4 µM]
35 | COC(=O)C(Cc1ccc(OCCn2c(=O)sc3cc(C(=O)c4ccccc4)ccc32)cc1)C(=O)OC | – | inactive: 25.9%
36 | CCOC(=O)c1cnn(-c2ccccc2)c1NC(=O)c1cc2nc(-c3ccco3)cc(C(F)(F)Cl)n2n1 | inconclusive: 12.6 µM [inhibitor, full curve] | –
37 | CC(C)COC(=O)OCN1C(=O)CN(CCN2CC(=O)N(COC(=O)OCC(C)C)C(=O)C2)CC1=O | inconclusive: 0.562 µM [inhibitor, full curve] | –
38 | Nc1nc2c(s1)CCN(Cc1ccc(Cl)cc1)CC2 | inconclusive: 5.62 µM [inhibitor, full curve, poor fit] | –
39 | CNc1cc2[nH]c(=O)n(-c3ccc(NC(=O)NS(=O)(=O)c4ccc(Cl)s4)cc3)c(=O)c2cc1F | – | inactive: 29.3%

Looked up by compound from the entries so far, 2 records:
Row | Structure (SMILES) | Potency | activity change, negative = inhibition
25 | C#CCN(C)Cc1ccccc1 | inconclusive: 2.82 µM [inhibitor, full curve] | –
30 | CCNC(=O)[C@H]1O[C@@H](n2cnc3c(N)nc(NCCc4ccc(CCC(=O)O)cc4)nc32)[C@H](O)C1O (some centres undefined) | inconclusive: 2.24 µM [inhibitor, full curve, poor fit] | –

Source: PubChem BioAssay (NCATS)
